For eleven compounds, T/C and survivor count results are on record in PubChem BioAssay AID256 (DTP/NCI, 2004).

Molecules are shown by their SMILES. The list is a part of this screen's results and no random one: it covers a few groups of compounds. Other doses and runs of a compound may be missing. T/C is the treated group as % of the vehicle group. Some doses have a count of surviving animals in place of a T/C: the source holds a T/C of zero for them, seemingly a mark for toxic or unscored doses. Some survivor counts are full or nearly so, which does not show that the dose was tolerated: survival well below the control is almost never listed, so the zero probably covers shortened survival too. Survivors were counted at the toxicity check, usually on the fifth day, unless a day is given; later deaths do not show. Schedule codes are those of the source, read here as Q, the interval in days (D) or hours (H), X, the number of doses. Some metal complexes and salts are drawn in pieces, as in the source, so charges may not balance. For survival time, this PubChem deposit counts one and a half times the control or more as active, and values a quarter to a half above the control carry no call in these data; other NCI protocols may use other cut-offs. Some T/C values carry the count of animals alive at the toxicity check (mostly the fifth day); without a count or a note in brackets, all were alive then. Some entries hold several experiments; the values are given in rising order. Some T/C values are marked as having no survivor count here; that says nothing about deaths at the dose. Additions like (4×) give the number of equal values in this list.

This test has as its system CD2F1 mice, L1210 leukemia ip, survival T/C. In words: NCI In Vivo Anticancer Drug Screen. Data for tumor model L1210 Leukemia (intraperitoneal) in CD2F1 (CDF1) mice. The note with it: higher T/C = longer survival. The essentials: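 Each value reflects a quotient of treated over vehicle control outcomes in mice with a transplanted tumor.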
The mark [1] stands for this setting: T/C endpoint: mean survival time, dose: 100.0 mg/kg/injection, schedule: Q04DX003 (ip), vehicle: Klucel (hydroxypropylcellulose) (HPC).
[2] abbreviates: T/C endpoint: mean survival time, dose: 50.0 mg/kg/injection, schedule: Q04DX003 (ip), vehicle: distilled water + Tween-80.
Where [3] appears, read: T/C endpoint: mean survival time, dose: 200.0 mg/kg/injection, schedule: Q04DX003 (ip), vehicle: distilled water + Tween-80.

For `CC1CCCCN1.C[CH2][Sn]([Br])([CH2]C)[CH2]C`, the T/C is, setting by setting: (T/C endpoint: mean survival time, dose: 6.25 mg/kg/injection, schedule: Q01DX009 (ip), vehicle: saline with Tween-80) 100 % of control [5 of 6 alive]; (T/C endpoint: mean survival time, dose: 12.5 mg/kg/injection, schedule: Q01DX009 (ip), vehicle: saline with Tween-80) 94 % of control. The survivor count by setting is: (T/C endpoint: mean survival time, dose: 25.0 mg/kg/injection, schedule: Q01DX009 (ip), vehicle: saline with Tween-80) 1 of 6; (T/C endpoint: median survival time, dose: 25.0 mg/kg/injection, schedule: Q04DX002 (ip), vehicle: saline with Tween-80) 1 of 3; (T/C endpoint: median survival time, dose: 50.0 mg/kg/injection, schedule: Q04DX002 (ip), vehicle: saline with Tween-80) 0 of 3; (T/C endpoint: median survival time, dose: 100.0 mg/kg/injection, schedule: Q04DX002 (ip), vehicle: saline with Tween-80) 0 of 3.
Turning to `N#C/C(=C\c1ccc(N(CCBr)CCBr)cc1)C(N)=O`, the T/C (T/C endpoint: mean survival time, dose: 0.5 mg/kg/injection, schedule: Q01DX009 (ip), vehicle: saline with Tween-80) is 106 % of control; the T/C (T/C endpoint: mean survival time, dose: 1.0 mg/kg/injection, schedule: Q01DX009 (ip), vehicle: saline with Tween-80) is 117 % of control; the T/C (T/C endpoint: mean survival time, dose: 2.0 mg/kg/injection, schedule: Q01DX009 (ip), vehicle: saline with Tween-80) is 125 % of control; the T/C (T/C endpoint: mean survival time, dose: 4.0 mg/kg/injection, schedule: Q01DX009 (ip), vehicle: saline with Tween-80) was 122 % of control; the T/C (T/C endpoint: mean survival time, dose: 8.0 mg/kg/injection, schedule: Q01DX009 (ip), vehicle: saline with Tween-80) was 97 % of control.
Take `[N-]=[N+]=NS(=O)(=O)c1ccc([N+](=O)[O-])cc1`: the T/C runs as follows: (T/C endpoint: mean survival time, dose: 100.0 mg/kg/injection, schedule: Q04DX002 (ip), vehicle: Klucel (hydroxypropylcellulose) (HPC)) 96 % of control; (T/C endpoint: mean survival time, dose: 200.0 mg/kg/injection, schedule: Q04DX002 (ip), vehicle: Klucel (hydroxypropylcellulose) (HPC)) 100 % of control [2 of 3 alive]; (T/C endpoint: mean survival time, dose: 400.0 mg/kg/injection, schedule: Q04DX002 (ip), vehicle: Klucel (hydroxypropylcellulose) (HPC)) 96 % of control.
For the compound `CCCCCSCSP(C)(=O)OC(C)C` (stereo unspecified), the T/C is 103 % of control [survivor count not shown] (T/C endpoint: mean survival time, dose: 0.31 mg/kg/injection, schedule: Q04DX003 (ip), vehicle: saline with Tween-80) and 97 % of control [survivor count not shown] (T/C endpoint: mean survival time, dose: 0.63 mg/kg/injection, schedule: Q04DX003 (ip), vehicle: saline with Tween-80).
For `CCOC(=O)c1ccc(N(CN)S(=O)(=O)c2ccc(C)cc2)cc1.O=[N+]([O-])c1cc([N+](=O)[O-])c(O)c([N+](=O)[O-])c1`, the T/C runs as follows: (T/C endpoint: mean survival time, dose: 100.0 mg/kg/injection, schedule: Q01DX001 (ip), vehicle: saline with Tween-80) 101 % of control; (T/C endpoint: mean survival time, dose: 200.0 mg/kg/injection, schedule: Q01DX001 (ip), vehicle: saline with Tween-80) 92 % of control; (T/C endpoint: mean survival time, dose: 400.0 mg/kg/injection, schedule: Q01DX001 (ip), vehicle: saline with Tween-80) 95 % of control.
For `ICCN(CCI)c1ccc2ccccc2c1`, the T/C is 139 and 145 % of control [4 of 6 alive] (T/C endpoint: mean survival time, dose: 25.0 mg/kg/injection, schedule: Q04DX003 (ip), vehicle: Klucel (hydroxypropylcellulose) (HPC)); 137 and 139 % of control (T/C endpoint: mean survival time, dose: 50.0 mg/kg/injection, schedule: Q04DX003 (ip), vehicle: Klucel (hydroxypropylcellulose) (HPC)); 102 and 119 % of control under setting [1]. Further, the survivor count reads like this: under setting [1], 6 of 6; (T/C endpoint: mean survival time, dose: 200.0 mg/kg/injection, schedule: Q04DX003 (ip), vehicle: Klucel (hydroxypropylcellulose) (HPC)) 5 of 6; (T/C endpoint: mean survival time, dose: 400.0 mg/kg/injection, schedule: Q04DX003 (ip), vehicle: Klucel (hydroxypropylcellulose) (HPC)) 3 of 6.
For `O=C(O)c1[nH]nc(-c2ccc([N+](=O)[O-])cc2[N+](=O)[O-])c1[N+](=O)[O-]`, the T/C runs as follows: (T/C endpoint: mean survival time, dose: 4.7 mg/kg/injection, schedule: Q01DX005 (ip), vehicle: other) 107 % of control; (T/C endpoint: mean survival time, dose: 9.4 mg/kg/injection, schedule: Q01DX005 (ip), vehicle: other) 111 % of control; (T/C endpoint: mean survival time, dose: 18.8 mg/kg/injection, schedule: Q01DX005 (ip), vehicle: other) 93 % of control; (T/C endpoint: mean survival time, dose: 37.5 mg/kg/injection, schedule: Q01DX005 (ip), vehicle: other) 90 % of control; (T/C endpoint: mean survival time, dose: 50.0 mg/kg/injection, schedule: Q01DX005 (ip), vehicle: other) 89 % of control; (T/C endpoint: mean survival time, dose: 75.0 mg/kg/injection, schedule: Q01DX005 (ip), vehicle: other) 90 % of control. Also, the T/C (T/C endpoint: mean survival time, dose: 100.0 mg/kg/injection, schedule: Q01DX005 (ip), vehicle: other) was 97 % of control; the T/C (T/C endpoint: mean survival time, dose: 200.0 mg/kg/injection, schedule: Q01DX005 (ip), vehicle: other) was 89 % of control [2 of 3 alive]; the T/C (T/C endpoint: mean survival time, dose: 400.0 mg/kg/injection, schedule: Q01DX005 (ip), vehicle: other) was 97 % of control.
For `O=P1(N(CCCl)CCCl)NCc2ccccc2O1` (stereo unspecified), the T/C reads like this: (T/C endpoint: mean survival time, dose: 25.0 mg/kg/injection, schedule: Q01DX009 (ip), vehicle: other) 87 % of control; (T/C endpoint: mean survival time, dose: 31.8 mg/kg/injection, schedule: Q01DX001 (ip), vehicle: other) 100 % of control; (T/C endpoint: mean survival time, dose: 50.0 mg/kg/injection, schedule: Q01DX009 (ip), vehicle: other) 92 % of control; (T/C endpoint: mean survival time, dose: 62.5 mg/kg/injection, schedule: Q01DX001 (ip), vehicle: other) 92 % of control; (T/C endpoint: mean survival time, dose: 100.0 mg/kg/injection, schedule: Q01DX009 (ip), vehicle: other) 86 % of control; (T/C endpoint: mean survival time, dose: 125.0 mg/kg/injection, schedule: Q01DX001 (ip), vehicle: other) 98 % of control [5 of 6 alive]. For the same compound, the survivor count is, setting by setting: (T/C endpoint: mean survival time, dose: 200.0 mg/kg/injection, schedule: Q01DX009 (ip), vehicle: other) 2 of 6; (T/C endpoint: mean survival time, dose: 250.0 mg/kg/injection, schedule: Q01DX001 (ip), vehicle: other) 3 of 6; (T/C endpoint: mean survival time, dose: 500.0 mg/kg/injection, schedule: Q01DX001 (ip), vehicle: other) 0 of 6.
As for `CC(O)C(C)COP(N)(=O)N(CCCl)CCCl` (stereo unspecified), the T/C was 98 % of control (T/C endpoint: mean survival time, dose: 15.62 mg/kg/injection, schedule: Q01DX001 (ip), vehicle: DMSO); 97 % of control (T/C endpoint: mean survival time, dose: 31.3 mg/kg/injection, schedule: Q01DX001 (ip), vehicle: DMSO); 98 % of control (T/C endpoint: mean survival time, dose: 62.5 mg/kg/injection, schedule: Q01DX001 (ip), vehicle: DMSO); 106 % of control (T/C endpoint: mean survival time, dose: 125.0 mg/kg/injection, schedule: Q01DX001 (ip), vehicle: DMSO); 106 % of control (T/C endpoint: mean survival time, dose: 250.0 mg/kg/injection, schedule: Q01DX001 (ip), vehicle: DMSO); 106 % of control (T/C endpoint: mean survival time, dose: 500.0 mg/kg/injection, schedule: Q01DX001 (ip), vehicle: DMSO).
`ClCCN(CCCl)[PH+]1NCCCO1.ClCCN(CCCl)[PH+]1NCCCO1.[Cl][Pt][Cl]` (stereo unspecified): the T/C (T/C endpoint: mean survival time, dose: 3.13 mg/kg/injection, schedule: Q04DX003 (ip), vehicle: distilled water + Tween-80) is 92 % of control (2×); the T/C (T/C endpoint: mean survival time, dose: 6.25 mg/kg/injection, schedule: Q04DX003 (ip), vehicle: distilled water + Tween-80) was 97 and 98 % of control; the T/C (T/C endpoint: mean survival time, dose: 12.5 mg/kg/injection, schedule: Q04DX003 (ip), vehicle: distilled water + Tween-80) was 92 and 93 % of control; the T/C (T/C endpoint: mean survival time, dose: 25.0 mg/kg/injection, schedule: Q04DX003 (ip), vehicle: distilled water + Tween-80) is 88 and 92 % of control; the T/C under setting [2] is 88 % of control; the T/C (T/C endpoint: mean survival time, dose: 100.0 mg/kg/injection, schedule: Q04DX003 (ip), vehicle: distilled water + Tween-80) was 87 % of control (2×). In addition, under setting [3], the T/C was 90 % of control. Besides, the survivor count under setting [2] is 6 of 6 and the survivor count under setting [3] is 6 of 6.
Take `CCCCCCCCCCCCOP(=O)(CCC)OCCCCCCCCCCCC`: the T/C is, setting by setting: (T/C endpoint: mean survival time, dose: 100.0 mg/kg/injection, schedule: Q04DX003 (ip), vehicle: saline with Tween-80) 91 % of control [survivor count not shown]; (T/C endpoint: mean survival time, dose: 200.0 mg/kg/injection, schedule: Q04DX003 (ip), vehicle: saline with Tween-80) 111 % of control [survivor count not shown]; (T/C endpoint: mean survival time, dose: 400.0 mg/kg/injection, schedule: Q04DX003 (ip), vehicle: saline with Tween-80) 91 % of control [survivor count not shown].
